Laboratory results: paper PMC11612967
No constants are given. Whether binding was seen depends on the method and setting. For some of these results: In cells and extracts the contact can be indirect. Some entries that bind do so weakly or less than the wild type.

Legend:
[1] = molecular target: T1, S. cerevisiae Smc5 (S. cerevisiae) (UniProt Q08204); assay: pull-down; S. cerevisiae Smc5/6 subunits co-expressed in E. coli Rosetta (DE3), one subunit with a Twin-Strep tag (N- or C-terminal); clarified lysate on Strep-Tactin Sepharose, 1 h at 4°C, 50 mM Tris-HCl pH 7.5, 300 mM NaCl, 5% glycerol; eluted with 2.5 mM desthiobiotin; Coomassie-stained SDS-PAGE
T1 sequence: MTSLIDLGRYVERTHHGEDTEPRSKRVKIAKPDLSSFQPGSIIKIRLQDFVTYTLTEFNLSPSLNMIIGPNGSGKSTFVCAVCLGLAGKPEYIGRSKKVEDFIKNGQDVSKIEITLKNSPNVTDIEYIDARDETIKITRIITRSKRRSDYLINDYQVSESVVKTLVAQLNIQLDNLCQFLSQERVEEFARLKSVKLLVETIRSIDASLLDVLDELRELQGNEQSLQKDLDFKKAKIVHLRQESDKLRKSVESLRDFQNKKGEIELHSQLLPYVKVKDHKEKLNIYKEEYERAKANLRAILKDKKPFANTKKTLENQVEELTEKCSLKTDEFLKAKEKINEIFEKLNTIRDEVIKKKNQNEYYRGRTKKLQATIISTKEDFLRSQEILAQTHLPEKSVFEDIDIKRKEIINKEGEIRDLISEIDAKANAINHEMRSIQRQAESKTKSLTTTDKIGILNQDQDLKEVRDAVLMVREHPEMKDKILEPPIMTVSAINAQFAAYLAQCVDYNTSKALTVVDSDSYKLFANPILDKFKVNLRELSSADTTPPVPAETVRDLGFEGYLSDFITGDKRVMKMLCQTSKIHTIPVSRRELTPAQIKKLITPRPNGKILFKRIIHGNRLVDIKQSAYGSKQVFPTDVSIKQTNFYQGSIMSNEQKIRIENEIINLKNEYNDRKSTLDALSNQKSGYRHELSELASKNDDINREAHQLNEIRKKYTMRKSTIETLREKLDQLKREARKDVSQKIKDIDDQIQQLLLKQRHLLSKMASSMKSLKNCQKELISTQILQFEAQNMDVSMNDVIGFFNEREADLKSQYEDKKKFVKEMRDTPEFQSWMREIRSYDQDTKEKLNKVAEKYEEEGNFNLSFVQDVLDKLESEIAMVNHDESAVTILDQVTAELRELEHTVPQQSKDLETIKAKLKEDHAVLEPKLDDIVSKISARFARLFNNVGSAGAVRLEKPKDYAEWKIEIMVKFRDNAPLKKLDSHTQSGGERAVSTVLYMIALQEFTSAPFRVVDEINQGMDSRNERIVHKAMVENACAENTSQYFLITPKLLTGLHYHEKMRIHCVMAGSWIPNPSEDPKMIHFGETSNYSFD

[2] = molecular target: T2, S. cerevisiae Smc6 (S. cerevisiae) (UniProt Q12749); assay: as above
T2 sequence: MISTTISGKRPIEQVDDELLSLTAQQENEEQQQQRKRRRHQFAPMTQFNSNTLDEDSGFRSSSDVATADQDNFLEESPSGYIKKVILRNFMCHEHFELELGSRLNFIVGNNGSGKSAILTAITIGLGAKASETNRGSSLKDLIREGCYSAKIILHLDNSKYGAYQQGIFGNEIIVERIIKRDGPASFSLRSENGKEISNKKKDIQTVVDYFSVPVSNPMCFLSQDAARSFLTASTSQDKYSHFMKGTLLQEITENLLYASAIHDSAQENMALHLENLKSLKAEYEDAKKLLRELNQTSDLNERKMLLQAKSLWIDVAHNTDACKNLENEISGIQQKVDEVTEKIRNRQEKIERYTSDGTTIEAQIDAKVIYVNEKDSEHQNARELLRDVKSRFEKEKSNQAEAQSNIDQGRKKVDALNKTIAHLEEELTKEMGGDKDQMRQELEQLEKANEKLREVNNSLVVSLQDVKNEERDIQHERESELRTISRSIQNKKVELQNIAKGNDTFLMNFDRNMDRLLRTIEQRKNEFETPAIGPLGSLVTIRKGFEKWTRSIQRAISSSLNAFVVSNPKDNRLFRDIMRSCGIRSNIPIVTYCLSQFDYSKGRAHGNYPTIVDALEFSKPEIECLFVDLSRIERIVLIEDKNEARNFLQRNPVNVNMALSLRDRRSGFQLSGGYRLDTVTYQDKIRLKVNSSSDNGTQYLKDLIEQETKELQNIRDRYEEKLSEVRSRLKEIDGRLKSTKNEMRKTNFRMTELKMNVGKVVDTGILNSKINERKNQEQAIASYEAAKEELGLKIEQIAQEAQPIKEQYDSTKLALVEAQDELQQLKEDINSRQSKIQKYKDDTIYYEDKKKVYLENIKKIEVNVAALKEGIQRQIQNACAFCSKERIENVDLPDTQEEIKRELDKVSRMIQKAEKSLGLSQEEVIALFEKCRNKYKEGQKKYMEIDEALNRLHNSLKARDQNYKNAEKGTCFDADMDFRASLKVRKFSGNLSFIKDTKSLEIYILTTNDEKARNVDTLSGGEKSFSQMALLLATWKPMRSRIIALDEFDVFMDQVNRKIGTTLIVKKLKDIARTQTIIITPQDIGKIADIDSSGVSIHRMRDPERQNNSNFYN

[3] = molecular target: T2, S. cerevisiae Smc6 (S. cerevisiae); assay: SEC; large scale, 1 liter E. coli culture; Smc6 with C-terminal Twin-Strep tag; StrepTrap, HiTrap Heparin, then Superose 6 Increase in 10 mM Tris-HCl pH 7.5, 300 mM NaCl; peak fractions by SDS-PAGE and LC-MS/MS
S. pombe Nse2 (S. pombe) = molecular target: T3, S. pombe Nse2 (S. pombe) (UniProt Q4PIR3); assay: pull-down; S. pombe Smc5/6 subunits co-expressed in Sf9 cells by baculovirus, one subunit tagged (N- or C-terminal); pellets processed as for the small-scale expression in E. coli; single affinity step; Coomassie-stained SDS-PAGE
T3 sequence: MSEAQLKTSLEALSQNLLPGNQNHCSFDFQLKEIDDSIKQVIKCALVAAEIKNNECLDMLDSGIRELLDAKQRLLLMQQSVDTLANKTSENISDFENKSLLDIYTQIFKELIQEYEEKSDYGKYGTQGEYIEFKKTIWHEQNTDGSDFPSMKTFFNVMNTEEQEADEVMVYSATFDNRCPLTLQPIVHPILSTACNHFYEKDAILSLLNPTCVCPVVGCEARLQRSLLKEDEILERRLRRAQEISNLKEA

S. pombe Nse1 (S. pombe) = molecular target: T4, S. pombe Nse1 (S. pombe) (UniProt Q53EK2); assay: as above
T4 sequence: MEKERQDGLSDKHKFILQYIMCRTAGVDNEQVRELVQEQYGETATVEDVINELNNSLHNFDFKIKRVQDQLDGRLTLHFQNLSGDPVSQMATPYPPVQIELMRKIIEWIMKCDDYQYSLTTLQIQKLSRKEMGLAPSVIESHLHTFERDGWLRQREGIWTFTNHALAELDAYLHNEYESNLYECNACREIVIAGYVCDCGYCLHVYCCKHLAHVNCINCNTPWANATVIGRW

S. pombe Nse4 (S. pombe) = molecular target: T5, S. pombe Nse4 (S. pombe) (UniProt Q6BDR8); assay: as above
T5 sequence: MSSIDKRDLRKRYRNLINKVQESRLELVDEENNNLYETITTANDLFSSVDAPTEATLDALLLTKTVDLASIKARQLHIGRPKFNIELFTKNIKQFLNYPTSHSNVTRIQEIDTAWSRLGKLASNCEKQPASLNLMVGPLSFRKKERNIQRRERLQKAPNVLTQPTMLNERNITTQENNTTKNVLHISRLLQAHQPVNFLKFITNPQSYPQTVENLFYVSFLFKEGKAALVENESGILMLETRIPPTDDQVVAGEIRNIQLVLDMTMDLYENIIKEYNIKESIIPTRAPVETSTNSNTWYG

S. pombe Nse3 (S. pombe) = molecular target: T6, S. pombe Nse3 (S. pombe) (UniProt Q9Y7U4); assay: as above
T6 sequence: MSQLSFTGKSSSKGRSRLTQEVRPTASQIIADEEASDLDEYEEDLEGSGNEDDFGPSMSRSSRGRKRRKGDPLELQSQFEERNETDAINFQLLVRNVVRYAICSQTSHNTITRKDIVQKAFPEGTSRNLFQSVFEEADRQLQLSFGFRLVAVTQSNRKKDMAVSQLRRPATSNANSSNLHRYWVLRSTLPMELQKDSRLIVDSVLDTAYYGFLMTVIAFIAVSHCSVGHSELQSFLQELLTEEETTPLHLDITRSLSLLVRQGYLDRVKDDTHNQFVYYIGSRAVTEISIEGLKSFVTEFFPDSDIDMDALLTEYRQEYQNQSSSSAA

Measured: binding

B1: S. cerevisiae Nse2 (protein, UniProt P38632 1-267)
chain: MALNDNPIPKSVPLHPKSGKYFHNLHARDLSNIYQQCYKQIDETINQLVDSTSPSTIGIEEQVADITSTYKLLSTYESESNSFDEHIKDLKKNFKQSSDACPQIDLSTWDKYRTGELTAPKLSELYLNMPTPEPATMVNNTDTLKILKVLPYIWNDPTCVIPDLQNPADEDDLQIEGGKIELTCPITCKPYEAPLISRKCNHVFDRDGIQNYLQGYTTRDCPQAACSQVVSMRDFVRDPIMELRCKIAKMKESQEQDKRSSQAIDVL
binds: [1] | [2] | [3]

B2: S. pombe Smc5 (protein, UniProt O13710 1-1076)
chain: MDGLRPSKRRKSNPLYSDYALGSIVRIKLVNFVTYDYCELFPGPYLNLIIGPNGTGKSTIVSAICIGLGWPPKLLGRAKEAREFIKYGKNTATIEIEMKYRDDETVTITRQISQDKSSSFSINREACATSSITSLMDTFNVQLNNLCHFLPQDRVAEFAQLDPYSRLMETERAIDHEGLLPAHEKLIDLRKREREILQNKNQGQSTLNSLKDRQQALEKEVNIFKEREKIKSYIEMLGLAKMLVIYREKTNVFNQLRADKKKLKKDLKDLVEEFQPILDKGEELRSDLKLKDDTFNDYSSASMELNTSNLRARASFSNFMENEKKLYEKVNTNRTLLRNANLTLNEAQQSVKSLTERQGPRPSDNGVQDLQEKMQEVNAEKLQHENEKLESSHELGSIRTLKAQKLIDLDNIKRELSYYNDATKRKLDFMSSAPGWEDAYQTYQLLKEYESAFEAPAYGPIYMNLKCKEKGFAALIEGFFRTDTFRTFIMSNYNDYLKLMDLITSKTKYTPTIREFSSERKKKIEDFEPPCSREKLQSFGFDGYVIDFLEGPEVVLVALCHMLKIHQIPIAKRELPPASVNALNNFRLANGDPVLKTYLAGSSIHLVFRSAYGDREITRRTDPLPSRSIYFSENVEMDLVKRKEEQLNAQLSQLENLQNEERKLQEKVNEHESLLSRTNDILSTLRKERDEKLIPIHEWQQLQERIEHQTLLLRQREKVPEQFAAEIEKNEDIRKENFEALMNSVLKVKENSIKATNNFEKMLGSRLNVIEAKYKLEKHEMDANQVNARLTEVQDRLKDITDKLASAREDAMSLYGSVVDSLQTQSSDRQTAITELNEEFATSSEVDNKISIEETKLKFMNVNSYVMEQYDARKKEIEELESKMSDFDQSVEELQDEMNSIKEDWVSKLEENVQCISDRFSKGMSGMGYAGEVRLGKSDDYDKWYIDILVQFREEEGLQKLTGQRQSGGERSVSTIMYLLSLQGLAIAPFRIVDEINQGMDPRNERVVHRHIVNSVCDNAVSQYFLVTPKLLPDLTYHRNLKVLCICNGAWLPATFRTSLSTYFEKLKKSALISSS
binds: S. pombe Nse2 (S. pombe) | S. pombe Nse1 (S. pombe) | S. pombe Nse4 (S. pombe) | S. pombe Nse3 (S. pombe)
